In publication PMC8277574:
No constants are given. Whether binding was seen depends on the method and setting. Binding seen in cells or lysates may run through a third protein. Some entries that bind do so weakly or less than the wild type.

Amino acid sequences for entries named in this document (tags omitted). A change or cut given only in a name is not applied to a line headed by its entry. Chains listed by the source or under a name are the forms on record and can include a tag or linker. Residues count along the entry.
UniProt Q64010: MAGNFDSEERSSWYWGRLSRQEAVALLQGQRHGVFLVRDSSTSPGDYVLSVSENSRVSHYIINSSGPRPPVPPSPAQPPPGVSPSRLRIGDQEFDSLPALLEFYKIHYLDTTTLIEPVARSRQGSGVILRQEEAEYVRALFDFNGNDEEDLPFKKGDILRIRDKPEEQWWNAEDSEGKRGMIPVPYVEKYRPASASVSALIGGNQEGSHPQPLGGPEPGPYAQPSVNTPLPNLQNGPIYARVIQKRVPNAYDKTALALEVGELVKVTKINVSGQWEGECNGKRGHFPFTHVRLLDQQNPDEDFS
HA-tagged CRKI: residues 1-204 of Q64010

Columns and labels:
[1] = target: T1, muscle-specific kinase (MUSK), endogenous mouse (mouse (endogenous in mouse muscle and mouse myotubes)) (UniProt Q61006); test: co-IP; MUSK immunoprecipitated (antibody MUSK 1A, Protein G-agarose) from leg muscle lysates of E18.5 wild-type, Dok7 CM/CM and Dok7 2YF/2YF mice, 1% NP-40; blot for CRK; CRK normalized to MUSK was 2.8-fold lower in Dok7 CM/CM and 28% lower in Dok7 2YF/2YF mice
T1 sequence (chain, tyrosine phosphorylated (level depends on genotype and AGRIN)): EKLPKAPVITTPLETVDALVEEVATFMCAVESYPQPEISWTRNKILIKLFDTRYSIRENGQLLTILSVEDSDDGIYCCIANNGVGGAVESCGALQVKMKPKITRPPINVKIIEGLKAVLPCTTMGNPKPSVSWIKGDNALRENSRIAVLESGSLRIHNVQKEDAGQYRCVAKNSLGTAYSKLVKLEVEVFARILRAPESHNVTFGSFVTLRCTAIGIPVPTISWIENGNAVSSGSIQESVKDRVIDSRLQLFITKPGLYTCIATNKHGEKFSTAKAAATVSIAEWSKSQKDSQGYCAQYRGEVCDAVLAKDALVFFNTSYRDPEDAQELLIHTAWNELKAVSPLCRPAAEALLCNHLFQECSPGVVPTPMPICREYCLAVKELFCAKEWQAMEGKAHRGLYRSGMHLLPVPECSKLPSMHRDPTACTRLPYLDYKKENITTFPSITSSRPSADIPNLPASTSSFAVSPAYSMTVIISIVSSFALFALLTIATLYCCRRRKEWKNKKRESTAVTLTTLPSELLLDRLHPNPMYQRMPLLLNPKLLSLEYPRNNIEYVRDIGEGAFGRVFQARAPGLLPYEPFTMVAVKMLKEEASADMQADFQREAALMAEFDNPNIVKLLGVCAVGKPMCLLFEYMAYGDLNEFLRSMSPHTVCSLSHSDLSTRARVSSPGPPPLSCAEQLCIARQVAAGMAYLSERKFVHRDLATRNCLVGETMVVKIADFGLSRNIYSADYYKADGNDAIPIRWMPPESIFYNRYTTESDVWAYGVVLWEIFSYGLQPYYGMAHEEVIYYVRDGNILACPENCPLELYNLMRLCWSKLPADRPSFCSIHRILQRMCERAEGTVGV

[2] = target: T2, MUSK JM region phosphopeptide (2), pY553, biotinylated; test: pull-down; biotinylated peptides on streptavidin-agarose beads, incubated overnight at 4 °C with pre-cleared lysates of transfected HEK 293 cells in lysis buffer with 1% NP-40; blot for HA; only the target purified
T2 sequence (peptide, phosphotyrosine p(Y) (Y553); biotin (end not stated)): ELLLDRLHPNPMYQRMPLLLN

[3] = target: T3, MUSK JM region phosphopeptide (3), pY553, PTB-binding site mutated (N to A), biotinylated; test: as above
T3 sequence (peptide, phosphotyrosine p(Y) (Y553); biotin (end not stated)): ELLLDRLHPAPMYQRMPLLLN

binding [1] | binding [2] | binding [3] | Substance
binds | – | – | CRK, endogenous mouse (from UniProt Q64010 1-304)
– | binds | binds | HA-tagged CRKI (from UniProt Q64010-2 1-204)
